Measured data: PubChem BioAssay AID1159578 (Peter MacCallum Cancer Centre, 2015)
In all, the deposit lists about 18,000 reagents; shown is a random part of them. Of all reagents, about 1,030 (5.7%) are marked active. 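Inactive calls also include pools with fewer than 3300 nuclei, whose migration was not assessed.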 Raw values vary from plate to plate and are shown uncorrected.

Screen: 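siRNA pools altering how lymphatic endothelial cells close a scratch wound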 (primary screen)
System: human lymphatic endothelial cells
Knock-down reagent: siRNA pool against human genes, 40 nM
Timing: 48 h after transfection
Measurement: 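Cells stained with dye and imaged after a scratch; covered wound area and nuclei counted, duplicates averaged, migration set against mock wells and turned into a robust z-score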
Direction: migration robust z-score: higher = faster migration into the scratch; migration relative to mock: higher = more scratch area covered than mock; nuclei per well: higher = more cells in the well
Call rule: 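Pools averaging fewer than 3300 nuclei are never called; remaining pools count as changed when migration robust z lies outside -2 to 2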
Meaning of the calls: active = migration changed; inactive = no migration change, or too few cells

gene | migration robust z-score | migration class with cell-count check | migration relative to mock | nuclei per well, duplicate mean | call
UQCC1 (ubiquinol-cytochrome c reductase complex assembly factor 1) | -0.43 | migration z between -2 and 2; enough cells | 0.78 | 5688 | inactive
CXCR3 (C-X-C motif chemokine receptor 3) | 0.29 | migration z between -2 and 2; enough cells | 0.86 | 6479 | inactive
RNGTT (RNA guanylyltransferase and 5'-phosphatase) | -0.13 | migration z between -2 and 2; enough cells | 0.78 | 4892 | inactive
ALPP (alkaline phosphatase, placental) | -1.42 | migration z between -2 and 2; enough cells | 0.53 | 3304 | inactive
OR4D1 (olfactory receptor family 4 subfamily D member 1) | -0.86 | migration z between -2 and 2; enough cells | 0.66 | 4203 | inactive
LDAH (lipid droplet associated hydrolase) | -0.86 | migration z between -2 and 2; enough cells | 0.66 | 5779 | inactive
RMC1 (regulator of MON1-CCZ1) | 1.39 | migration z between -2 and 2; enough cells | 1.25 | 6609 | inactive
LRRC32 (leucine rich repeat containing 32) | -0.22 | migration z between -2 and 2; enough cells | 0.83 | 5392 | inactive
SPCS3 (signal peptidase complex subunit 3) | -0.13 | migration z between -2 and 2; enough cells | 0.78 | 5227 | inactive
OR52B2 (olfactory receptor family 52 subfamily B member 2) | -0.4 | migration z between -2 and 2; enough cells | 0.78 | 5277 | inactive
OR52N4 (olfactory receptor family 52 subfamily N member 4) | -1.08 | migration z between -2 and 2; enough cells | 0.6 | 5206 | inactive
KRT83 (keratin 83) | -0.76 | migration z between -2 and 2; enough cells | 0.68 | 6739 | inactive
BORCS7 (BLOC-1 related complex subunit 7) | 0.97 | migration z between -2 and 2; enough cells | 1.14 | 5686 | inactive
THBS3 (thrombospondin 3) | -1.34 | under 3300 nuclei; migration not judged | 0.54 | 2914 | inactive
FARSA (phenylalanyl-tRNA synthetase subunit alpha) | -1.61 | migration z between -2 and 2; enough cells | 0.5 | 6746 | inactive
TRAPPC2L (trafficking protein particle complex subunit 2L) | -1.14 | migration z between -2 and 2; enough cells | 0.58 | 5564 | inactive
PRB4 (proline rich protein BstNI subfamily 4) | -0.04 | migration z between -2 and 2; enough cells | 0.87 | 6092 | inactive
COL9A2 (collagen type IX alpha 2 chain) | 0.17 | migration z between -2 and 2; enough cells | 0.93 | 4746 | inactive
NCAN (neurocan) | -2.08 | migration z below -2; enough cells | 0.34 | 5218 | active
TCTN3 (tectonic family member 3) | -0.05 | migration z between -2 and 2; enough cells | 0.87 | 4791 | inactive
OR4C12 (olfactory receptor family 4 subfamily C member 12) | -0.36 | migration z between -2 and 2; enough cells | 0.78 | 4096 | inactive
MYL1 (myosin light chain 1) | 0.69 | migration z between -2 and 2; enough cells | 1.06 | 6098 | inactive
MEIS1 (Meis homeobox 1) | 0.31 | migration z between -2 and 2; enough cells | 0.86 | 3808 | inactive
H1-5 (H1.5 linker histone, cluster member) | -2.12 | migration z below -2; enough cells | 0.34 | 3422 | active
ARF1 (ARF GTPase 1) | -1.48 | migration z between -2 and 2; enough cells | 0.52 | 4995 | inactive
GALP (galanin like peptide) | -0.97 | migration z between -2 and 2; enough cells | 0.64 | 6424 | inactive
AP3D1 (adaptor related protein complex 3 subunit delta 1) | 1.42 | migration z between -2 and 2; enough cells | 1.25 | 4662 | inactive
KCNS2 | -0.18 | migration z between -2 and 2; enough cells | 0.77 | 6175 | inactive
RSPO1 (R-spondin 1) | -2.06 | migration z below -2; enough cells | 0.36 | 6760 | active
IMPG2 (interphotoreceptor matrix proteoglycan 2) | -0.71 | migration z between -2 and 2; enough cells | 0.7 | 4905 | inactive
MBOAT1 (membrane bound glycerophospholipid O-acyltransferase 1) | 0.38 | migration z between -2 and 2; enough cells | 0.98 | 5764 | inactive
PPM1M (protein phosphatase, Mg2+/Mn2+ dependent 1M) | 0.1 | migration z between -2 and 2; enough cells | 0.82 | 6134 | inactive
ERBB4 (erb-b2 receptor tyrosine kinase 4) | -1.79 | migration z between -2 and 2; enough cells | 0.46 | 4402 | inactive
LRTM2 (leucine rich repeat transmembrane protein 2) | 1.51 | migration z between -2 and 2; enough cells | 1.27 | 5694 | inactive
AEN (apoptosis enhancing nuclease) | 0.39 | migration z between -2 and 2; enough cells | 0.98 | 6082 | inactive
ATP5MF (ATP synthase membrane subunit f) | 1.94 | migration z between -2 and 2; enough cells | 1.38 | 6031 | inactive
EXTL2 (exostosin like glycosyltransferase 2) | 0.46 | migration z between -2 and 2; enough cells | 0.9 | 6460 | inactive
EID3 (EP300 interacting inhibitor of differentiation 3) | -0.48 | migration z between -2 and 2; enough cells | 0.76 | 4854 | inactive
TSPAN3 (tetraspanin 3) | 1.38 | migration z between -2 and 2; enough cells | 1.24 | 6404 | inactive

Taken from above.
Entry for LRRC32 (leucine rich repeat containing 32) in “migration class with cell-count check”: migration z between -2 and 2; enough cells
Entry of THBS3 (thrombospondin 3) under “call”: inactive
Under “nuclei per well, duplicate mean”, ATP5MF (ATP synthase membrane subunit f) reads 6031
Under “nuclei per well, duplicate mean”, UQCC1 (ubiquinol-cytochrome c reductase complex assembly factor 1) reads 5688
